{
  "source": "paper doi:10.1101/2023.09.28.560017",
  "binders": {"B1": {"name": "stomatin-N-myc (protein, UniProt P27105 1-288)", "chain": "MAEKRHTRDSEAQRLPDSFKDSPSKGLGPCGWILVAFSFLFTVITFPISIWMCIKIIKEYERAIIFRLGRILQGGAKGPGLFFILPCTDSFIKVDMRTISFDIPPQEILTKDSVTISVDGVVYYRVQNATLAVANITNADSATRLLAQTTLRNVLGTKNLSQILSDREEIAHNMQSTLDDATDAWGIKVERVEIKDVKLPVQLQRAMAAEAEASREARAKVIAAEGEMNASRALKEASMVITESPAALQLRYLQTLTTIAAEKNSTIVFPLPIDMLQGIIGAKHSHLG"}, "B2": {"name": "FLOT1-N-myc (flotillin 1) (protein, UniProt O75955 1-427)", "chain": "MFFTCGPNEAMVVSGFCRSPPVMVAGGRVFVLPCIQQIQRISLNTLTLNVKSEKVYTRHGVPISVTGIAQVKIQGQNKEMLAAACQMFLGKTEAEIAHIALETLEGHQRAIMAHMTVEEIYKDRQKFSEQVFKVASSDLVNMGISVVSYTLKDIHDDQDYLHSLGKARTAQVQKDARIGEAEAKRDAGIREAKAKQEKVSAQYLSEIEMAKAQRDYELKKAAYDIEVNTRRAQADLAYQLQVAKTKQQIEEQRVQVQVVERAQQVAVQEQEIARREKELEARVRKPAEAERYKLERLAEAEKSQLIMQAEAEAASVRMRGEAEAFAIGARARAEAEQMAKKAEAFQLYQEAAQLDMLLEKLPQVAEEISGPLTSANKITLVSSGSGTMGAAKVTGEVLDILTRLPESVERLTGVSISQVNHKPLRTA"}, "B3": {"name": "FLOT2-N-myc (flotillin 2) (protein, UniProt Q14254 1-428)", "chain": "MGNCHTVGPNEALVVSGGCCGSDYKQYVFGGWAWAWWCISDTQRISLEIMTLQPRCEDVETAEGVALTVTGVAQVKIMTEKELLAVACEQFLGKNVQDIKNVVLQTLEGHLRSILGTLTVEQIYQDRDQFAKLVREVAAPDVGRMGIEILSFTIKDVYDKVDYLSSLGKTQTAVVQRDADIGVAEAERDAGIREAECKKEMLDVKFMADTKIADSKRAFELQKSAFSEEVNIKTAEAQLAYELQGAREQQKIRQEEIEIEVVQRKKQIAVEAQEILRTDKELIATVRRPAEAEAHRIQQIAEGEKVKQVLLAQAEAEKIRKIGEAEAAVIEAMGKAEAERMKLKAEAYQKYGDAAKMALVLEALPQIAAKIAAPLTKVDEIVVLSGDNSKVTSEVNRLLAELPASVHALTGVDLSKIPLIKKATGVQV"}},
  "note": "These are yes or no findings as the source states them, for the method shown. In cells and extracts the contact can be indirect. Some entries that bind do so weakly or less than the wild type. Tags and fused reporters may be left off the sequences shown.",
  "data": [
    {"biological_target": "T1, WT hHV1-GFP (human voltage gated proton channel, GFP-tagged) (human) (UniProt Q96D96)", "T1 sequence": "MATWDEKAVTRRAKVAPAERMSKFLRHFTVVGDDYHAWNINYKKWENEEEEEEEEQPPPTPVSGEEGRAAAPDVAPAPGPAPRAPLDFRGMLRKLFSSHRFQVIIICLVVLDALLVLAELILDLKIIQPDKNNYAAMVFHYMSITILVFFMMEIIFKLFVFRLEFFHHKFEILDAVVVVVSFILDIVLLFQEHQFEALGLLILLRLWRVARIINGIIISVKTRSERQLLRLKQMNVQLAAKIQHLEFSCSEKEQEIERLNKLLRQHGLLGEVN", "test": "co-IP", "values": [
      {"binder": "B1", "binding": "binds"},
      {"binder": "B2", "binding": "no binding"},
      {"binder": "B3", "binding": "no binding"}
    ]}
  ]
}
